Test results from publication PMC7659708.
No constants are given. Whether binding was seen depends on the method and setting. A result given as binding can be weak or reduced; the word gives no strength. Tags and fused reporters may be left off the sequences shown.

Biological target: microtubules assembled from HeLa tubulin (human (endogenous in HeLa))
Test: TIRF microscopy of a fluorescent binder on immobilized microtubules; Taxol-stabilized labeled microtubules immobilized on a kinesin-3 (Kif1a, 1-357) motor bed without ATP, incubated with 5 µM A1aY1-GFP; GFP intensity on the filaments measured; both purified

B1: A1aY1-GFP (designed binder)
chain: MATVKFKYKGEEKQVDISKILSVGRYGKLIHFLYDLGGGKAGMGMVSEKDAPKELLQMLEKQKK
binding: binds
